The source of these data is article doi:10.1101/2021.02.17.431525.

Sequences of proteins named here, by UniProt entry; tags and fusion partners are left off. Residues count along the entry.
UniProt P04629, residues 33-796: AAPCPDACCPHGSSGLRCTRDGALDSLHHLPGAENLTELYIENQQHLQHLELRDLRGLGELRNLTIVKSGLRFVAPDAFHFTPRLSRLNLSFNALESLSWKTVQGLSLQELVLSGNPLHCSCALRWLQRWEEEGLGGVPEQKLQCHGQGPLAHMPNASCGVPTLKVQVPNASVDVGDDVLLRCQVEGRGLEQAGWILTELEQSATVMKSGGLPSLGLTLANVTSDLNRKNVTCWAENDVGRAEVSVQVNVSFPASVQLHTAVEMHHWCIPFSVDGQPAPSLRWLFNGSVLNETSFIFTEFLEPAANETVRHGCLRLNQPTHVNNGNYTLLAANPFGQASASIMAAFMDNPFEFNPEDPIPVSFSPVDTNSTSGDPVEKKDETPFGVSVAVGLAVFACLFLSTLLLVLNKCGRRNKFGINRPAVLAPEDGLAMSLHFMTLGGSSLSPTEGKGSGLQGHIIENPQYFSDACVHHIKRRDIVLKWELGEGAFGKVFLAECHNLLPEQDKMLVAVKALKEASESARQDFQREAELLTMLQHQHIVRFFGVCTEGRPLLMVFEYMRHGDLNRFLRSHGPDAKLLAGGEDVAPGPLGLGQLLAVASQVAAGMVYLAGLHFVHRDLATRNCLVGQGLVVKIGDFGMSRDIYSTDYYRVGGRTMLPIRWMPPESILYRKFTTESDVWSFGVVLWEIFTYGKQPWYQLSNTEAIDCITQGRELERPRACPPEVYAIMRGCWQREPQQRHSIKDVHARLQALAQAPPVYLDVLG
UniProt P62993: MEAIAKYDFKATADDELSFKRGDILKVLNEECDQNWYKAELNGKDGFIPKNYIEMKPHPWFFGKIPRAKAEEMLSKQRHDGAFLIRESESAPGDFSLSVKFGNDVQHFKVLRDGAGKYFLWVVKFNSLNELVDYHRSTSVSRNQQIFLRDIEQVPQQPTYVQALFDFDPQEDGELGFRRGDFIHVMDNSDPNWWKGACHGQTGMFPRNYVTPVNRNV

The test has as its target neurotrophin receptor tyrosine kinase (NTRK1 or TRKA) (human (endogenous in SH-SY5Y)) (UniProt P04629). As to the kind of experiment: co-IP.

Results are given in words; binding and its absence hold for the method and conditions named. In cells and extracts the contact can be indirect. Some entries that bind do so weakly or less than the wild type.

For “growth factor receptor bound protein 2 (from UniProt P62993 1-217)”, the binding result was “binds”.
